Patent publication US20020015966A1, “Effector-specific protein assembly and uses thereof” (priority 2000, published 2002)
For at least one compound, name, drawing or mass did not settle the structure.

System: ER-α
Experiment: mammalian two-hybrid assay of ER-α helix 1-LBD interaction
Assay type: cell-based
Details: HepG2 cells, G5E1B-Luc reporter

## C[C@]12CC[C@@H]3c4ccc(O)cc4CC[C@H]3[C@@H]1CC[C@@H]2O [estradiol]
  hinge-LBD interaction of ER-α: stimulates
